# Experimental data taken from the supplement of paper PMC10849652.
# Sequences of proteins named here, by UniProt entry; tags and fusion partners are left off. A change or cut given only in a name is not applied to a line headed by its entry.
# UniProt P53677: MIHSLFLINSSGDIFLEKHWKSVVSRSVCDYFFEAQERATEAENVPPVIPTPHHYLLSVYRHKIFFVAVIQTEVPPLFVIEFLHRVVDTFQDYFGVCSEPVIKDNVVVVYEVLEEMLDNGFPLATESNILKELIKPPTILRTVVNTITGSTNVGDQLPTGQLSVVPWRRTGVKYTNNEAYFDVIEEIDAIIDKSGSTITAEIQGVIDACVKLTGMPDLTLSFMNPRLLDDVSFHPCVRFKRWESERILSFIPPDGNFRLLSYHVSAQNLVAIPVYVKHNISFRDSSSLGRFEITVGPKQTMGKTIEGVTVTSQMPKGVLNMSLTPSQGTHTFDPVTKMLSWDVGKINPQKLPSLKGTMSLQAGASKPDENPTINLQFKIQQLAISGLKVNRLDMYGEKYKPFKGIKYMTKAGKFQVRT
# UniProt Q2TAA5: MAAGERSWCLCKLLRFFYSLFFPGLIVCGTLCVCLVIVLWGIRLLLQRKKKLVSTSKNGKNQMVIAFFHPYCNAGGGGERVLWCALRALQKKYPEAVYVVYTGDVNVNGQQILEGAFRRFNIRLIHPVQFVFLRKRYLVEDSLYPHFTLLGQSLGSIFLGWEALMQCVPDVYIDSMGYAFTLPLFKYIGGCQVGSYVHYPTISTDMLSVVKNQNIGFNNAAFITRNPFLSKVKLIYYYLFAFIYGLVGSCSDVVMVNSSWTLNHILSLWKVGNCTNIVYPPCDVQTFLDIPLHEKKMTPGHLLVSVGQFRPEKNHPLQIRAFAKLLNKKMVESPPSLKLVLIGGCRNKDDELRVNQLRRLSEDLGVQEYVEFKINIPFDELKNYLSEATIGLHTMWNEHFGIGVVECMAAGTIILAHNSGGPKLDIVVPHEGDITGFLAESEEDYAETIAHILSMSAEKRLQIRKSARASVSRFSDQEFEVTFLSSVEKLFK
# UniProt Q8IY63: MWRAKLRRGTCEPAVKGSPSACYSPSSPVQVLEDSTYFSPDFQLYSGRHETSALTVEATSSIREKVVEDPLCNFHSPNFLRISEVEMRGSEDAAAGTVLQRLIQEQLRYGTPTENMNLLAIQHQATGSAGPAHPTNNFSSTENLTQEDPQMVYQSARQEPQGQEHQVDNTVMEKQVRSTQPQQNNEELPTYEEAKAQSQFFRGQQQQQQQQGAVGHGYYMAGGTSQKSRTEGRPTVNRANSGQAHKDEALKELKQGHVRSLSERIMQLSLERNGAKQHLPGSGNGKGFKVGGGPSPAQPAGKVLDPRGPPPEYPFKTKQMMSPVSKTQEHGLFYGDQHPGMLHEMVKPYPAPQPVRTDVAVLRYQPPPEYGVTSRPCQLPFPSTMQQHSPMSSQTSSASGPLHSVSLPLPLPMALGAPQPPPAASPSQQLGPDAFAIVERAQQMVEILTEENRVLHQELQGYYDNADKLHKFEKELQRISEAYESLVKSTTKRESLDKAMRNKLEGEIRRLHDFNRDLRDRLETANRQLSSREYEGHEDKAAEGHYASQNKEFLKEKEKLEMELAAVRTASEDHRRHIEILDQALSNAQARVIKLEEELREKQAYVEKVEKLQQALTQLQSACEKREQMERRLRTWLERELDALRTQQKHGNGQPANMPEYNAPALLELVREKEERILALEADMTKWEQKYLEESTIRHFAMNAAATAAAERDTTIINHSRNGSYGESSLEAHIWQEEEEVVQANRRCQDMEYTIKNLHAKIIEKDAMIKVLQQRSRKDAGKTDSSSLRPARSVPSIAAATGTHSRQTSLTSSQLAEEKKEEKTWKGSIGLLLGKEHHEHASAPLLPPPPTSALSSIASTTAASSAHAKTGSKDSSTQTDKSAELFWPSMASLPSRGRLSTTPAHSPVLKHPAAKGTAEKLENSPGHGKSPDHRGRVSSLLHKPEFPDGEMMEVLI
# UniProt P30838: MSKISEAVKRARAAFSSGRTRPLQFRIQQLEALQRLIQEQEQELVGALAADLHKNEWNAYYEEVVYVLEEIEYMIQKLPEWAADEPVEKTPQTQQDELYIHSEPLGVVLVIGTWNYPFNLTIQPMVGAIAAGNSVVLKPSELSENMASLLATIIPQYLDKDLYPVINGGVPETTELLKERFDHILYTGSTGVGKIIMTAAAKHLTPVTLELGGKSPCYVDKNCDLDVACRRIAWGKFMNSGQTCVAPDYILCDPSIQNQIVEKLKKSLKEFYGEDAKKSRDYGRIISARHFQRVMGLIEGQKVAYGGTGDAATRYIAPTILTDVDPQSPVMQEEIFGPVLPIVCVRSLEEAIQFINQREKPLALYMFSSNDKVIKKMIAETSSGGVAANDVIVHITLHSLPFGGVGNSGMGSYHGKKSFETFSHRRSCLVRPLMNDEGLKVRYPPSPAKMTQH
# UniProt Q9NYG5, whole entry, looked up: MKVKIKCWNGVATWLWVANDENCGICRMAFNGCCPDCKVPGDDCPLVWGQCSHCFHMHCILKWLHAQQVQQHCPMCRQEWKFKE
# Some of the results follow.
# Columns and labels:
# Assay in all cases: log2 fold change, soluble protein after heating vs DMSO (PISA); higher = thermal stabilisation; K562 lysate, 10 uM; active = over 0.2 and 3.5 SD of the protein, either way, in both replicates (recomputed)
# ibrutinib = compound: C=CC(=O)N1CCC[C@@H](n2nc(-c3ccc(Oc4ccccc4)cc3)c3c(N)ncnc32)C1 [ibrutinib]
# Outline: (§1)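 Dounce homogenisation of K562 pellets in PBS pH 7.4 with 1 mM MgCl2 produced a crude extract, used at 1 mg/mL protein. Exposure to 10 μM compound lasted 30 min, and aliquots were then heated for 3 min across 48°C-58°C, pooled and brought to 0.5% NP-40 at 4°C. The supernatant after 21,000xg for 90 min was quantified by TMTpro 16plex LC-MS/MS with channel sums equalised. Duplicate values are given as log-two fold change in thermal stability relative to solvent controls.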
# [1] = compound: CC(=O)c1cnc2ccc(-c3cc(Cl)c(O)c(Cl)c3)nc2c1N[C@H]1CC[C@H](CN(C)C)CC1
# Outline: as §1
# ralimetinib = compound: CC(C)(C)Cn1c(N)nc2ccc(-c3[nH]c(C(C)(C)C)nc3-c3ccc(F)cc3)nc21 [ralimetinib]
# Outline: as §1
# [2] = compound: CC(C)(O)CC(=O)NCCn1ccc2ncnc(Nc3ccc(Oc4cccc(C(F)(F)F)c4)c(Cl)c3)c21
# Outline: as §1
# [3] = compound: CC(C)C1=C2N=C(C=C(N2N=C1)NCC3=CC=CC=C3)NCCCCCCN
# Outline: as §1
# [4] = compound: CC1=C(C2=C(C=C1)C(=O)C3=CC=CC=C3N2CCCN)C
# Outline: as §1
# [5] = compound: CC1=C(C=C(C=C1)NC(=O)C2=CC(=CC=C2)N(C)C)NC(=O)C3=CC=C(C=C3)O
# Outline: as §1
# [6] = compound: CC1=CC=C(C=C1)SC2=C3C=C(SC3=CN=C2)C(=O)N
# Outline: as §1
# vemurafenib = compound: CCCS(=O)(=O)Nc1ccc(F)c(C(=O)c2c[nH]c3ncc(-c4ccc(Cl)cc4)cc23)c1F [vemurafenib]
# Outline: as §1
# [7] = compound: CCCS(=O)(=O)Nc1ccc(F)c(C(=O)c2c[nH]c3ncc(Cl)cc23)c1F
# Outline: as §1
# barasertib = compound: CCN(CCCOc1ccc2c(Nc3cc(CC(=O)Nc4cccc(F)c4)[nH]n3)ncnc2c1)CCOP(=O)(O)O [barasertib]
# Outline: as §1
# [8] = compound: CC[C@@H]1C(=O)N(C)c2cnc(Nc3ccc(C(=O)NC4CCN(C)CC4)cc3OC)nc2N1C1CCCC1
# Outline: as §1
# volasertib = compound: CC[C@@H]1C(=O)N(C)c2cnc(Nc3ccc(C(=O)N[C@H]4CC[C@H](N5CCN(CC6CC6)CC5)CC4)cc3OC)nc2N1C(C)C [volasertib]
# Outline: as §1
# [9] = compound: CCn1c(C(=O)N(C2CC2)C2CC2)cc2c3c(ncn3C)c(Nc3cc(C)n(C)n3)nc21
# Outline: as §1
# [10] = compound: CCn1cc(-c2ccnc3[nH]c(-c4cccc(CN(C)C)c4)cc23)c(-c2ccc(NC(=O)N(C)C)cc2)n1
# Outline: as §1
# [11] = compound: CN1CCC(CNc2ccc3ncc(-c4cccc(OC(F)(F)F)c4)n3n2)CC1
# Outline: as §1
# saracatinib = compound: CN1CCN(CCOc2cc(OC3CCOCC3)c3c(Nc4c(Cl)ccc5c4OCO5)ncnc3c2)CC1 [saracatinib]
# Outline: as §1
# [12] = compound: CC1=C(C(CC(=O)N1)C2=CC=C(C=C2)C(F)(F)F)C(=O)NC3=C(C=C4C(=C3)C=NN4)F
# Outline: as §1
# [13] = compound: CC1=C(C=C(C=C1)NC(=O)C2=CC(=CC=C2)C(C)(C)C#N)NC3=CC4=C(C=C3)N=CN(C4=O)C
# Outline: as §1
# sotrastaurin = compound: CN1CCN(c2nc(C3=C(c4c[nH]c5ccccc45)C(=O)NC3=O)c3ccccc3n2)CC1 [sotrastaurin]
# Outline: as §1
Target,log2 fold change (ibrutinib),log2 fold change [1],log2 fold change (ralimetinib),log2 fold change [2],log2 fold change [3],log2 fold change [4],log2 fold change [5],log2 fold change [6],log2 fold change (vemurafenib),log2 fold change [7],log2 fold change (barasertib),log2 fold change [8],log2 fold change (volasertib),log2 fold change [9],log2 fold change [10],log2 fold change [11],log2 fold change (saracatinib),log2 fold change [12],log2 fold change [13],log2 fold change (sotrastaurin)
AP3M2 (UniProt P53677),inactive: -0.058,inactive: 0.065,inactive: -0.036,inactive: -0.066,inactive: 0.037,inactive: -0.023,inactive: 0.109,inactive: -0.045,inactive: 0.037,inactive: 0.051,inactive: -0.017,inactive: -0.255,inactive: -0.037,inactive: 0.014,inactive: 0.003,inactive: -0.028,inactive: 0.004,,,
ALG11 (UniProt Q2TAA5),inactive: -0.339,,inactive: 0.03,inactive: 0.108,inactive: -0.027,inactive: -0.005,inactive: -0.014,,,,inactive: 0.188,,,inactive: 0.096,inactive: -0.071,inactive: 0.041,inactive: -0.024,inactive: 0.182,inactive: -0.082,inactive: 0.005
AMOTL1 (UniProt Q8IY63),inactive: -0.057,,inactive: -0.001,inactive: -0.043,inactive: -0.026,inactive: -0.014,inactive: -0.008,,inactive: 0.334,,inactive: 0.02,inactive: -0.034,,inactive: -0.047,inactive: -0.077,inactive: -0.025,inactive: -0.188,inactive: 0.017,inactive: -0.005,inactive: 0.012
ALDH3A1 (UniProt P30838),,inactive: -0.197,inactive: -0.274,inactive: -0.259,inactive: 0.04,active: 1.23,inactive: -0.001,inactive: -0.119,,inactive: 0.014,,,inactive: 0.035,inactive: -0.399,inactive: -0.618,inactive: 0.216,active: 1.2,,inactive: 0.432,inactive: -0.007
ANAPC11 (UniProt Q9NYG5),inactive: -0.154,,inactive: 0.016,inactive: 0.083,,inactive: 0.196,inactive: 0.031,,,,inactive: 0.053,,,inactive: 0.016,inactive: 0.392,inactive: -0.398,inactive: 0.115,,inactive: 0.12,inactive: -0.083
